{"source": "PubChem BioAssay AID540256", "about": "(National Center for Advancing Translational Sciences (NCATS), 2011)", "note": "About 3,700 (1.2%) of roughly 300,000 compounds were called active. This list was built around the results that the source calls inconclusive (neither active nor inactive); the mix of calls is not that of the screen. Calls follow the shape of the full dose curve; tested in HEK293 cells. Where the call is inconclusive, the potency comes from a doubtful curve fit. Some structures have more than one record in an assay (separate samples or runs), and their calls can disagree. % is scaled to controls: 0 for no effect and ±100 for the full control effect; potency is read from the fitted curve at half-maximal effect.", "data": [{"assay": "qHTS for Inhibitors of binding or entry into cells for Lassa Virus; also: nearly all actives have a fitted effect of over 50% in size", "conditions": "Lassa virus pseudotype entry inhibition, cell reporter; activity change, negative = inhibition: at 37.9 µM (top of the series) unless noted", "values": [{"molecule": "Cc1ccc(C)c(NC(=O)CN(C)C(=O)c2ccccc2Cc2ccccc2)c1", "Potency": "inconclusive: 7.94 µM [inhibitor, partial curve]"}, {"molecule": "Cc1ccc(NC(=S)NC(=O)C2CCCC2)cc1C", "Potency": "inconclusive: 28.2 µM [inhibitor, single point]"}, {"molecule": "CCc1ccc(NC(=O)c2ccc(F)c(S(=O)(=O)N3CCC4(CC3)OCCO4)c2)cc1", "Potency": "inconclusive: 2.51 µM [inhibitor, full curve, poor fit]"}, {"molecule": "COc1cccc(CNS(=O)(=O)c2cc3[nH]c(=O)c(=O)[nH]c3cc2C)c1", "activity change, negative = inhibition": "inactive: 29.1% [at 46.1 µM]"}, {"molecule": "O=C(NCCN1CCOCC1)c1cc(Sc2ccc(F)cc2F)nc2ccccc12", "Potency": "inconclusive: 15.8 µM [inhibitor, partial curve, poor fit]"}, {"molecule": "Cc1cc(SCC(=O)c2cc(C)n(C)c2C)nc2ccccc12", "Potency": "inconclusive: 29.1 µM [inhibitor, single point]"}, {"molecule": "CCOC(=O)c1c(-c2ccc(C)o2)csc1NC(=O)COC(=O)c1cccs1", "Potency": "inconclusive: 2.31 µM [inhibitor, partial curve]"}, {"molecule": "CCC(C)c1ccc(NC(=O)C2CCCN(c3ncccn3)C2)cc1", "note": "(centres undefined)", "activity change, negative = inhibition": "inactive: -18.4%"}, {"molecule": "Cc1ccc(NC(=O)C2CCCN2S(=O)(=O)c2cccc3nsnc23)c(C)c1", "note": "(centres undefined)", "activity change, negative = inhibition": "inactive: -1.45% [at 46.1 µM]"}, {"molecule": "O=C(Nc1ccccc1N1CCOCC1)C1=COCCO1", "Potency": "inconclusive: 1.12 µM [activator, partial curve, poor fit]"}, {"molecule": "CN(C)S(=O)(=O)N1CCC(Oc2cccc(C(=O)N3CCCCCC3)c2)CC1", "Potency": "inconclusive: 20 µM [inhibitor, partial curve, poor fit]"}, {"molecule": "COc1ccc(C(=O)Nc2ccc3c(c2)OCCO3)cc1", "Potency": "active: 5.17 µM"}, {"molecule": "CCOC(=O)c1cc(NC(=O)c2ccc(C)cc2)c(=O)oc1C(F)(F)F", "activity change, negative = inhibition": "inactive: 2.72%"}, {"molecule": "COc1cc(N2CCOCC2)ccc1C=C(C#N)C#N", "activity change, negative = inhibition": "inactive: 1.28% [at 46.1 µM]"}, {"molecule": "CCC(=O)N1CCc2cc(S(=O)(=O)NC(Cc3ccccc3)C(=O)Nc3nccs3)ccc21", "note": "(centres undefined)", "Potency": "inactive"}, {"molecule": "Cc1cc(C)c2nc(N3CCN(C(=O)c4cccs4)CC3)sc2c1", "Potency": "inconclusive: 35.5 µM [inhibitor, single point]"}, {"molecule": "Cc1nc2ccccc2c(=O)n1NC(=O)c1cccc(Cl)c1", "Potency": "inconclusive: 3.16 µM [activator, single point]"}, {"molecule": "Fc1ccc2c(c1)C(c1ccc(N3CCOCC3)cc1)=NNC(c1cccs1)=N2", "Potency": "inconclusive: 20.6 µM [inhibitor, single point]"}, {"molecule": "Cc1cccc(Nc2ncnc(N)c2[N+](=O)[O-])n1", "activity change, negative = inhibition": "inactive: -4.15% [at 46.1 µM]"}, {"molecule": "COc1ccc(S(=O)(=O)N2CCC(n3cnc4ccccc43)CC2)cc1", "activity change, negative = inhibition": "inactive: -22.1%"}, {"molecule": "CCOc1ccc(S(=O)(=O)NCc2cccnc2)cc1", "Potency": "inconclusive: 0.708 µM [activator, full curve, poor fit]"}, {"molecule": "Cc1nc2ccccn2c1C(=O)NN", "activity change, negative = inhibition": "inactive: 1.82%"}, {"molecule": "N/C(=N\\N=C\\c1cccc(O)c1)c1nonc1N", "Potency": "inconclusive: 11.2 µM [inhibitor, partial curve, poor fit]"}, {"molecule": "O=C(CCc1nc(C2=CCN(Cc3cccc(Cl)c3)CC2)no1)Nc1ccccc1F", "Potency": "inconclusive: 35.5 µM [inhibitor, single point]"}, {"molecule": "CCOc1ccccc1NC(=O)N(Cc1ccc(F)cc1)C1CCN(CC)CC1", "Potency": "inconclusive: 11.2 µM [inhibitor, single point]"}, {"molecule": "CC1CCCN(c2cc3c(cc2[N+](=O)[O-])C(=O)N(c2ccccc2)C3=O)C1", "note": "(centres undefined)", "Potency": "inconclusive: 3.98 µM [activator, single point]"}, {"molecule": "O=C(NCc1nc2ccccc2[nH]1)c1cccc(S(=O)(=O)N2CCOCC2)c1", "Potency": "inconclusive: 0.184 µM [inhibitor, full curve, poor fit]"}, {"molecule": "COC(=O)CSc1nc2cc(C)ccc2cc1C#N", "activity change, negative = inhibition": "inactive: -3.57%"}, {"molecule": "Cc1cccnc1NC(=S)NC(=O)/C=C/c1ccco1", "Potency": "inconclusive: 28.2 µM [activator, single point]"}, {"molecule": "CC(C)OC(=O)C(NC(=O)c1ccccc1)=C1CCCCC1", "Potency": "inconclusive: 6.51 µM [activator, full curve]"}, {"molecule": "Cc1ccsc1CN(C(=O)c1oc2ccc(F)cc2c1C)C1CCS(=O)(=O)C1", "note": "(centres undefined)", "Potency": "inconclusive: 25.1 µM [inhibitor, partial curve, poor fit]"}, {"molecule": "O=C(CC1CCCCC1)NCc1ccco1", "Potency": "inconclusive: 14.1 µM [activator, single point]"}, {"molecule": "CN1/C(=C\\C(=O)COC(=O)CN2C(=O)C3CC=CCC3C2=O)C(C)(C)c2ccccc21", "note": "(centres undefined)", "Potency": "inconclusive: 8.2 µM [inhibitor, partial curve, poor fit]"}, {"molecule": "Cc1csc(N/N=C/c2ccccc2F)n1", "Potency": "inconclusive: 5.62 µM [inhibitor, single point]"}, {"molecule": "COC(=O)C1=C(C)NC(C)=C(C(=O)OCCN(C)Cc2ccccc2)C1c1cccc([N+](=O)[O-])c1", "note": "(centres undefined)", "Potency": "active: 7.3 µM"}, {"molecule": "COc1ccc(NC(=O)c2c(NCc3ccc(N(C)C)cc3)sc3c2CCC3)cc1", "Potency": "inconclusive: 8.91 µM [inhibitor, partial curve, poor fit]"}, {"molecule": "N#CCC(=O)N/N=C/c1cn(Cc2ccc3ccccc3c2)c2ccccc12", "Potency": "inconclusive: 10 µM [inhibitor, partial curve, poor fit]"}, {"molecule": "COc1ccccc1C(OC(=O)c1ccco1)C(=O)NCc1ccc(F)cc1", "note": "(centres undefined)", "activity change, negative = inhibition": "inactive: 2.79%"}, {"molecule": "COC(=O)c1ccc(Cl)c(NC(=O)Cc2ccccc2[N+](=O)[O-])c1", "activity change, negative = inhibition": "inactive: -13.3%"}, {"molecule": "Nc1ccc2c3c(cccc13)C(=O)N(c1ccccc1)C2=O", "Potency": "inconclusive: 0.251 µM [inhibitor, full curve, poor fit]"}, {"molecule": "COc1cc(OC)cc(C(=O)NCC(=O)OC(C)C(=O)NC(C)C2CC3CCC2C3)c1", "note": "(centres undefined)", "Potency": "inconclusive: 1 µM [inhibitor, single point]"}, {"molecule": "COc1cccc(N2CCN(c3ccc4nnc(CCC(=O)Nc5ccc(F)cc5)n4n3)CC2)c1", "Potency": "inconclusive: 20 µM [inhibitor, partial curve, poor fit]"}, {"molecule": "Cc1ccc(N(Cc2ccccc2)C(=O)c2cc(S(=O)(=O)N3CCOCC3)ccc2N2CCCC2)cc1", "Potency": "inconclusive: 35.5 µM [inhibitor, single point]"}, {"molecule": "S=C(NCCc1ccccc1)N1CCn2cccc2C1c1cccnc1", "note": "(centres undefined)", "activity change, negative = inhibition": "inactive: 6.36%"}]}]}
